Data source: PubChem BioAssay AID1508597 (Cure First, 2020)
Shown is a random part of the about 2,100 reagents, in one setting of the screen. 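Calls flag viability under 80% in either arm, not effects specific to rucaparib; the reference for percent is not stated.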 Unmarked entries are inactive. A reagent listed more than once was tested more than once; the source does not tell the runs apart. Reagent sequences are not shown. The record does not give: the 100% reference.

Purpose: 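Knock-downs altering ovarian cancer cell survival with or without PARP inhibitor rucaparib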 (primary screen)
Cell system: human ovarian carcinoma lines grown from tumours: OCI-P5x (papillary serous) and OCI-C5x (clear cell)
Reagents: siRNA pool against human genes, 1.25 pmol siRNA per well
Time to read-out: 72 h or 96 h, depending on the cell culture
Conditions: rucaparib 20 µM (about IC30) or vehicle, present until read-out
Rucaparib or vehicle: Vehicle
Cell line: OCI-C5x (clear cell)
Measured: 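Luminescent ATP-based viability assay read 72 or 96 h after transfection, depending on culture, given as normalised percent viability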
Direction: viability, normalised: higher = more viable cells remaining
Hit rule: 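Active when normalised viability falls below 80 percent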
Calls: active = viability under 80%; inactive = viability 80% or more

gene	technical replicate	viability, normalised (%)
NUAK2 (NUAK family kinase 2)	1	54.2 (active)
NUAK2 (NUAK family kinase 2)	2	56.8 (active)
NUAK2 (NUAK family kinase 2)	3	52 (active)
APOE (apolipoprotein E)	1	40.2 (active)
APOE (apolipoprotein E)	2	36.9 (active)
APOE (apolipoprotein E)	3	46.3 (active)
PTPN9 (protein tyrosine phosphatase non-receptor type 9)	1	62.4 (active)
PTPN9 (protein tyrosine phosphatase non-receptor type 9)	2	48.9 (active)
PTPN9 (protein tyrosine phosphatase non-receptor type 9)	3	45.6 (active)
SMPD4 (sphingomyelin phosphodiesterase 4)	1	59.9 (active)
SMPD4 (sphingomyelin phosphodiesterase 4)	2	61.1 (active)
SMPD4 (sphingomyelin phosphodiesterase 4)	3	59.4 (active)
IRS2 (insulin receptor substrate 2)	1	80.2
IRS2 (insulin receptor substrate 2)	2	57 (active)
IRS2 (insulin receptor substrate 2)	3	49 (active)
BUB1 (BUB1 mitotic checkpoint serine/threonine kinase)	1	63.8 (active)
BUB1 (BUB1 mitotic checkpoint serine/threonine kinase)	1	60.5 (active)
BUB1 (BUB1 mitotic checkpoint serine/threonine kinase)	2	52.3 (active)
BUB1 (BUB1 mitotic checkpoint serine/threonine kinase)	2	60.4 (active)
BUB1 (BUB1 mitotic checkpoint serine/threonine kinase)	3	61.4 (active)
BUB1 (BUB1 mitotic checkpoint serine/threonine kinase)	3	52.8 (active)
SMC3 (structural maintenance of chromosomes 3)	1	52.3 (active)
SMC3 (structural maintenance of chromosomes 3)	2	46.7 (active)
SMC3 (structural maintenance of chromosomes 3)	3	55.7 (active)
